Assay results: patent US20200009293A1, “ELASTIC BIORESORBABLE ENCASEMENT FOR IMPLANTS” (ORCHID MEDICAL PTE LTD, priority 2017, published 2020)
At least one compound was matched to its structure with a doubt left.

Assay: Drug elution from films in PBS buffer, HPLC
Format: physicochemical
Conditions: 2 cm x 2 cm film, 4 mL PBS, 37° C.; drug density 0.05 mg to 0.1 mg/cm2

Structure (SMILES): CN(C)c1ccc(O)c2c1C[C@H]1C[C@H]3[C@H](N(C)C)C(O)=C(C(N)=O)C(=O)[C@@]3(O)C(O)=C1C2=O [minocycline]
- cumulative release of minocycline and rifampin from films (FIG. 8): releases much faster
